According to patent US20180362631A1:
These are yes or no findings as the source states them, for the method shown. Some binding calls cover weakened binding; strength is not graded here.

What was measured:
[1] = molecular target: T1, cynomolgus monkey CXCL2 (cynomolgus monkey) (UniProt Q0EAC2); assay: Fab/antigen complex purified by size exclusion chromatography and crystallized
T1 sequence: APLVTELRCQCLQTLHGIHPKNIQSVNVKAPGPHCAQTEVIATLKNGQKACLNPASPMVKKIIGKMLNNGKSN

[2] = molecular target: T2, cynomolgus monkey CXCL7 (cynomolgus monkey) (UniProt G7P5K7); assay: as above
T2 sequence: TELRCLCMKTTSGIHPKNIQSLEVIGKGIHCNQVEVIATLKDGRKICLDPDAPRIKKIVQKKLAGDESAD

B1: Fab of Antibody 1 (Fab, V domains shown)
VH: QVQLVQSGAEVKKPGASVKVSCKASGYEFTSYWIHWVRQAPGQGLEWMGNISPNSGSANYNEKFKSRVTMTRDTSTSTVYMELSSLRSEDTAVYYCAREGPYSYYPSREYYGSDLWGQGTLVTVSS
VL: EIVLTQSPATLSLSPGERATLSCRASQSISNNLHWYQQKPGQAPRLLIYYTSRSVSGIPARFSGSGSGTDFTLTISSLEPEDFAVYYCGQNNEWPEVFGGGTKVEIK
In the case of B1, the binding [1] is reported as “binds” and the binding [2] is reported as “binds”.
